The exact form of at least one protein or probe is not confirmed. For part of these data: A negative result means that nothing was seen under these conditions. For part of these data: At least one verdict was read from the data and is not stated in words by the source. For part of these data: Protein sequences can lack the tags named with them.
Assays:
[1] = biological target: T1, Toll-9-V5/His (Drosophila melanogaster) (UniProt Q9VPH1); experiment: dot blot (protein immobilized, J2 anti-dsRNA); settings: 1 mM Mg2+, dsRNA 2 ug/mL, concentration-dependent; 50 mM Tris, 150 mM NaCl, 1 mM MgCl2, 1 mM DTT (pH of binding buffer not stated; protein fraction in 50 mM Tris, 150 mM NaCl, 50 mM imidazole pH 7.0); recombinant protein
T1 sequence (looked up, limits assumed): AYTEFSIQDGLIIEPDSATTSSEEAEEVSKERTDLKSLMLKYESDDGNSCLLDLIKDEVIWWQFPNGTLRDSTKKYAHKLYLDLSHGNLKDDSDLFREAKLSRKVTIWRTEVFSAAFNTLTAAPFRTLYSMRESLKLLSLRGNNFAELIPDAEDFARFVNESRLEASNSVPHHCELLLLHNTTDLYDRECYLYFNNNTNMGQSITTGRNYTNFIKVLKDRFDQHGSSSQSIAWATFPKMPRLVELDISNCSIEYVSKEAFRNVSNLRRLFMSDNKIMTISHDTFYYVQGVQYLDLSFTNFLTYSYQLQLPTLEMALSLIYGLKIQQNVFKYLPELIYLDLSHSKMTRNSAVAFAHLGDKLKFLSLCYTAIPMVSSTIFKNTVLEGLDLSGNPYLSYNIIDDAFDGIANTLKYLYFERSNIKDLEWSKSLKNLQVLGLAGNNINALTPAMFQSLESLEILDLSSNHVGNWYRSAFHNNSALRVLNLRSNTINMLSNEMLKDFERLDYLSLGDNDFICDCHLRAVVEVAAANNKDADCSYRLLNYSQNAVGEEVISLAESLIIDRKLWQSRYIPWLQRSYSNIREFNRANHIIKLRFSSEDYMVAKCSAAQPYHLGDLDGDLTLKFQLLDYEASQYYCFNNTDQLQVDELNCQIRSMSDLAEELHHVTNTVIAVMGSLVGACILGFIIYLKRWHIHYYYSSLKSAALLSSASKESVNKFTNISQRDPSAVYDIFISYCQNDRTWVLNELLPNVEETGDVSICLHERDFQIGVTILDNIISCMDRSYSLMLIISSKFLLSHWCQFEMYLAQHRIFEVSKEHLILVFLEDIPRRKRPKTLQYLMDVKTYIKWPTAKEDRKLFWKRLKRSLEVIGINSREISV

Amino acid sequences for entries named in this document (tags omitted). Residues count along the entry.
UniProt P02769, 25-607: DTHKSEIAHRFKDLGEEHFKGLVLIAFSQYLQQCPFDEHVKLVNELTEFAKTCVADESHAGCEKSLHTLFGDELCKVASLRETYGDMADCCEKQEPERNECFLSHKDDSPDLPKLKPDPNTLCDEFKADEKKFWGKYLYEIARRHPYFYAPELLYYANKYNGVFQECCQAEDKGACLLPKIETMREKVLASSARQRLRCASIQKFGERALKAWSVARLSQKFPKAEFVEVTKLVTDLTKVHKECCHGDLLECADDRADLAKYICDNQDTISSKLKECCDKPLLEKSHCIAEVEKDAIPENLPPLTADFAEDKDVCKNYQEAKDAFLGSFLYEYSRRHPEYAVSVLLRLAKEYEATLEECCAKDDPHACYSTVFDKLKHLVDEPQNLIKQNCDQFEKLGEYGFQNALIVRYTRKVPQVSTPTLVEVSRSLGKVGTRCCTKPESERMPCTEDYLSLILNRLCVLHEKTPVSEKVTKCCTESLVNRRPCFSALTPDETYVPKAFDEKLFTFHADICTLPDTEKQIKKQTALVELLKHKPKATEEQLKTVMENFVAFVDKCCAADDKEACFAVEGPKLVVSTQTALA

[2] = biological target: T1, Toll-9-V5/His (Drosophila melanogaster); experiment: dot blot (dsRNA immobilized, anti-V5); settings: 1 mM Mg2+, 20-2000 ng dsRNA, concentration-dependent, dsRNA identity taken from the reciprocal assay's Methods; 50 mM Tris, 150 mM NaCl, 1 mM MgCl2, 1 mM DTT (pH of binding buffer not stated; protein fraction in 50 mM Tris, 150 mM NaCl, 50 mM imidazole pH 7.0); recombinant protein
[3] = biological target: BSA (UniProt P02769); experiment: dot blot (dsRNA immobilized); settings: 1 mM Mg2+, BSA control; 50 mM Tris, 150 mM NaCl, 1 mM MgCl2, 1 mM DTT (pH of binding buffer not stated; protein fraction in 50 mM Tris, 150 mM NaCl, 50 mM imidazole pH 7.0); commercial protein

“GUGCACGUAUAACAACAGAUCGAUAUACCUGAUUGUGGGAUUCCUUCUCGUAGCUUUUUUUCGAAUUUCGGUUACCGGGAAUUACAGGAACGUAAUGCCCACGACGCUGUUUCUGUUCCAAAUGCCGCUCUACUGGAUAUGGAGCUUUACCGAUAUGGACCAAAGCACCCUGAGCUACUCGCACUGGAUACGUGACUCCCAUGGACUAGACUAUGCGGCCGGAAUGGCCUCCAACUACUUUCACGGCUACCUCAAACUUUCACUGCC / GGCAGUGAAAGUUUGAGGUAGCCGUGAAAGUAGUUGGAGGCCAUUCCGGCCGCAUAGUCUAGUCCAUGGGAGUCACGUAUCCAGUGCGAGUAGCUCAGGGUGCUUUGGUCCAUAUCGGUAAAGCUCCAUAUCCAGUAGAGCGGCAUUUGGAACAGAAACAGCGUCGUGGGCAUUACGUUCCUGUAAUUCCCGGUAACCGAAAUUCGAAAAAAAGCUACGAGAAGGAAUCCCACAAUCAGGUAUAUCGAUCUGUUGUUAUACGUGCAC [267 bp dsRNA]”: binds [1]; binds [2]; no binding [3].
